Results deposited as PubChem BioAssay AID1508597 (Cure First, 2020)

Assay: 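Knock-downs altering ovarian cancer cell survival with or without PARP inhibitor rucaparib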 (primary screen)
Cells: human ovarian carcinoma lines grown from tumours: OCI-P5x (papillary serous) and OCI-C5x (clear cell)
Knock-down reagent: siRNA pool against human genes, 1.25 pmol siRNA per well
Time to read-out: 72 h or 96 h, depending on the cell culture
Conditions: rucaparib 20 µM (about IC30) or vehicle, present until read-out
Measured: 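Luminescent ATP-based viability assay read 72 or 96 h after transfection, depending on culture, given as normalised percent viability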
Reading the numbers: viability, normalised: higher = more viable cells remaining
Call rule: 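Active when normalised viability falls below 80 percent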
Meaning of the calls: active = viability under 80%; inactive = viability 80% or more
The whole screen tested about 2,100 reagents; shown is an unselected part. 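Calls flag viability under 80% in either arm, not effects specific to rucaparib; the reference for percent is not stated.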 Not stated in the record: the 100% reference.

gene | rucaparib or vehicle | cell line | technical replicate | viability, normalised (%) | Outcome
MST1R (GeneID 4486) | Rucaparib | OCI-C5x (clear cell) | 1 | 28.9 | active
MST1R (GeneID 4486) | Rucaparib | OCI-C5x (clear cell) | 2 | 47.7 | active
MST1R (GeneID 4486) | Rucaparib | OCI-C5x (clear cell) | 3 | 37.5 | active
MST1R (GeneID 4486) | Rucaparib | OCI-P5x (serous) | 1 | 83.9 | inactive
MST1R (GeneID 4486) | Rucaparib | OCI-P5x (serous) | 2 | 86.8 | inactive
MST1R (GeneID 4486) | Rucaparib | OCI-P5x (serous) | 3 | 83.3 | inactive
MST1R (GeneID 4486) | Vehicle | OCI-C5x (clear cell) | 1 | 46.8 | active
MST1R (GeneID 4486) | Vehicle | OCI-C5x (clear cell) | 2 | 36.7 | active
MST1R (GeneID 4486) | Vehicle | OCI-C5x (clear cell) | 3 | 41.4 | active
MST1R (GeneID 4486) | Vehicle | OCI-P5x (serous) | 1 | 83.1 | inactive
MST1R (GeneID 4486) | Vehicle | OCI-P5x (serous) | 2 | 84.5 | inactive
MST1R (GeneID 4486) | Vehicle | OCI-P5x (serous) | 3 | 95.6 | inactive
PELO (GeneID 53918) | Rucaparib | OCI-C5x (clear cell) | 1 | 31.4 | active
PELO (GeneID 53918) | Rucaparib | OCI-C5x (clear cell) | 2 | 28 | active
PELO (GeneID 53918) | Rucaparib | OCI-C5x (clear cell) | 3 | 24.4 | active
PELO (GeneID 53918) | Rucaparib | OCI-P5x (serous) | 1 | 26.3 | active
PELO (GeneID 53918) | Rucaparib | OCI-P5x (serous) | 2 | 38.7 | active
PELO (GeneID 53918) | Rucaparib | OCI-P5x (serous) | 3 | 46 | active
PELO (GeneID 53918) | Vehicle | OCI-C5x (clear cell) | 1 | 29.5 | active
PELO (GeneID 53918) | Vehicle | OCI-C5x (clear cell) | 2 | 20.1 | active
PELO (GeneID 53918) | Vehicle | OCI-C5x (clear cell) | 3 | 36.7 | active
PELO (GeneID 53918) | Vehicle | OCI-P5x (serous) | 1 | 70.2 | active
PELO (GeneID 53918) | Vehicle | OCI-P5x (serous) | 2 | 73.5 | active
PELO (GeneID 53918) | Vehicle | OCI-P5x (serous) | 3 | 88.1 | inactive
MAU2 (GeneID 23383) | Rucaparib | OCI-C5x (clear cell) | 1 | 47.7 | active
MAU2 (GeneID 23383) | Rucaparib | OCI-C5x (clear cell) | 2 | 35.1 | active
MAU2 (GeneID 23383) | Rucaparib | OCI-C5x (clear cell) | 3 | 57.4 | active
MAU2 (GeneID 23383) | Rucaparib | OCI-P5x (serous) | 1 | 78.8 | active
MAU2 (GeneID 23383) | Rucaparib | OCI-P5x (serous) | 2 | 77.4 | active
MAU2 (GeneID 23383) | Rucaparib | OCI-P5x (serous) | 3 | 76.9 | active
MAU2 (GeneID 23383) | Vehicle | OCI-C5x (clear cell) | 1 | 53.8 | active
MAU2 (GeneID 23383) | Vehicle | OCI-C5x (clear cell) | 2 | 58 | active
MAU2 (GeneID 23383) | Vehicle | OCI-C5x (clear cell) | 3 | 68 | active
MAU2 (GeneID 23383) | Vehicle | OCI-P5x (serous) | 1 | 60.1 | active
MAU2 (GeneID 23383) | Vehicle | OCI-P5x (serous) | 2 | 76 | active
MAU2 (GeneID 23383) | Vehicle | OCI-P5x (serous) | 3 | 88.8 | inactive
PIM1 (GeneID 5292) | Rucaparib | OCI-C5x (clear cell) | 1 | 48.1 | active
PIM1 (GeneID 5292) | Rucaparib | OCI-C5x (clear cell) | 2 | 58.5 | active
PIM1 (GeneID 5292) | Rucaparib | OCI-C5x (clear cell) | 3 | 39.6 | active
PIM1 (GeneID 5292) | Rucaparib | OCI-P5x (serous) | 1 | 115 | inactive
PIM1 (GeneID 5292) | Rucaparib | OCI-P5x (serous) | 2 | 130 | inactive
PIM1 (GeneID 5292) | Rucaparib | OCI-P5x (serous) | 3 | 113 | inactive
PIM1 (GeneID 5292) | Vehicle | OCI-C5x (clear cell) | 1 | 69.1 | active
PIM1 (GeneID 5292) | Vehicle | OCI-C5x (clear cell) | 2 | 52.5 | active
PIM1 (GeneID 5292) | Vehicle | OCI-C5x (clear cell) | 3 | 60.3 | active
PIM1 (GeneID 5292) | Vehicle | OCI-P5x (serous) | 1 | 92.3 | inactive
PIM1 (GeneID 5292) | Vehicle | OCI-P5x (serous) | 2 | 79.8 | active
PIM1 (GeneID 5292) | Vehicle | OCI-P5x (serous) | 3 | 92.8 | inactive
ULK1 (GeneID 8408) | Rucaparib | OCI-C5x (clear cell) | 1 | 57.6 | active
ULK1 (GeneID 8408) | Rucaparib | OCI-C5x (clear cell) | 2 | 51.8 | active
ULK1 (GeneID 8408) | Rucaparib | OCI-C5x (clear cell) | 3 | 61 | active
ULK1 (GeneID 8408) | Rucaparib | OCI-P5x (serous) | 1 | 62.9 | active
ULK1 (GeneID 8408) | Rucaparib | OCI-P5x (serous) | 2 | 85.1 | inactive
ULK1 (GeneID 8408) | Rucaparib | OCI-P5x (serous) | 3 | 50.5 | active
ULK1 (GeneID 8408) | Vehicle | OCI-C5x (clear cell) | 1 | 57 | active
ULK1 (GeneID 8408) | Vehicle | OCI-C5x (clear cell) | 2 | 44.8 | active
ULK1 (GeneID 8408) | Vehicle | OCI-C5x (clear cell) | 3 | 61.3 | active
ULK1 (GeneID 8408) | Vehicle | OCI-P5x (serous) | 1 | 63.9 | active
ULK1 (GeneID 8408) | Vehicle | OCI-P5x (serous) | 2 | 56.7 | active
ULK1 (GeneID 8408) | Vehicle | OCI-P5x (serous) | 3 | 60.5 | active

As entered above:
ULK1 (GeneID 8408), rucaparib or vehicle Rucaparib, cell line OCI-P5x (serous), technical replicate 1, Outcome: active
Result of PIM1 (GeneID 5292), rucaparib or vehicle Rucaparib, cell line OCI-P5x (serous), technical replicate 1 in “Outcome”: inactive
For “Outcome”, PELO (GeneID 53918), rucaparib or vehicle Rucaparib, cell line OCI-P5x (serous), technical replicate 2 shows active
Under “Outcome”, PIM1 (GeneID 5292), rucaparib or vehicle Vehicle, cell line OCI-C5x (clear cell), technical replicate 2 shows active
For “Outcome”, PELO (GeneID 53918), rucaparib or vehicle Vehicle, cell line OCI-P5x (serous), technical replicate 2 shows active
Entry of MAU2 (GeneID 23383), rucaparib or vehicle Vehicle, cell line OCI-P5x (serous), technical replicate 2 in “viability, normalised (%)”: 76
